Reference: the supplement of paper PMC10849652
Some of the results follow.

By UniProt entry, the sequences of proteins in these tests, tags left out. Where a name states a change or a piece, a line headed by the entry shows the natural chain unless it says otherwise.
UniProt Q96AT1: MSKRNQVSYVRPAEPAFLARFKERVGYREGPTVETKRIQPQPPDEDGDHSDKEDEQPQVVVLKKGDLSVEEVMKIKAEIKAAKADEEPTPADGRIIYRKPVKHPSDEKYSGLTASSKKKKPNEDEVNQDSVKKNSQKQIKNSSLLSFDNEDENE
UniProt O14686, whole entry, looked up: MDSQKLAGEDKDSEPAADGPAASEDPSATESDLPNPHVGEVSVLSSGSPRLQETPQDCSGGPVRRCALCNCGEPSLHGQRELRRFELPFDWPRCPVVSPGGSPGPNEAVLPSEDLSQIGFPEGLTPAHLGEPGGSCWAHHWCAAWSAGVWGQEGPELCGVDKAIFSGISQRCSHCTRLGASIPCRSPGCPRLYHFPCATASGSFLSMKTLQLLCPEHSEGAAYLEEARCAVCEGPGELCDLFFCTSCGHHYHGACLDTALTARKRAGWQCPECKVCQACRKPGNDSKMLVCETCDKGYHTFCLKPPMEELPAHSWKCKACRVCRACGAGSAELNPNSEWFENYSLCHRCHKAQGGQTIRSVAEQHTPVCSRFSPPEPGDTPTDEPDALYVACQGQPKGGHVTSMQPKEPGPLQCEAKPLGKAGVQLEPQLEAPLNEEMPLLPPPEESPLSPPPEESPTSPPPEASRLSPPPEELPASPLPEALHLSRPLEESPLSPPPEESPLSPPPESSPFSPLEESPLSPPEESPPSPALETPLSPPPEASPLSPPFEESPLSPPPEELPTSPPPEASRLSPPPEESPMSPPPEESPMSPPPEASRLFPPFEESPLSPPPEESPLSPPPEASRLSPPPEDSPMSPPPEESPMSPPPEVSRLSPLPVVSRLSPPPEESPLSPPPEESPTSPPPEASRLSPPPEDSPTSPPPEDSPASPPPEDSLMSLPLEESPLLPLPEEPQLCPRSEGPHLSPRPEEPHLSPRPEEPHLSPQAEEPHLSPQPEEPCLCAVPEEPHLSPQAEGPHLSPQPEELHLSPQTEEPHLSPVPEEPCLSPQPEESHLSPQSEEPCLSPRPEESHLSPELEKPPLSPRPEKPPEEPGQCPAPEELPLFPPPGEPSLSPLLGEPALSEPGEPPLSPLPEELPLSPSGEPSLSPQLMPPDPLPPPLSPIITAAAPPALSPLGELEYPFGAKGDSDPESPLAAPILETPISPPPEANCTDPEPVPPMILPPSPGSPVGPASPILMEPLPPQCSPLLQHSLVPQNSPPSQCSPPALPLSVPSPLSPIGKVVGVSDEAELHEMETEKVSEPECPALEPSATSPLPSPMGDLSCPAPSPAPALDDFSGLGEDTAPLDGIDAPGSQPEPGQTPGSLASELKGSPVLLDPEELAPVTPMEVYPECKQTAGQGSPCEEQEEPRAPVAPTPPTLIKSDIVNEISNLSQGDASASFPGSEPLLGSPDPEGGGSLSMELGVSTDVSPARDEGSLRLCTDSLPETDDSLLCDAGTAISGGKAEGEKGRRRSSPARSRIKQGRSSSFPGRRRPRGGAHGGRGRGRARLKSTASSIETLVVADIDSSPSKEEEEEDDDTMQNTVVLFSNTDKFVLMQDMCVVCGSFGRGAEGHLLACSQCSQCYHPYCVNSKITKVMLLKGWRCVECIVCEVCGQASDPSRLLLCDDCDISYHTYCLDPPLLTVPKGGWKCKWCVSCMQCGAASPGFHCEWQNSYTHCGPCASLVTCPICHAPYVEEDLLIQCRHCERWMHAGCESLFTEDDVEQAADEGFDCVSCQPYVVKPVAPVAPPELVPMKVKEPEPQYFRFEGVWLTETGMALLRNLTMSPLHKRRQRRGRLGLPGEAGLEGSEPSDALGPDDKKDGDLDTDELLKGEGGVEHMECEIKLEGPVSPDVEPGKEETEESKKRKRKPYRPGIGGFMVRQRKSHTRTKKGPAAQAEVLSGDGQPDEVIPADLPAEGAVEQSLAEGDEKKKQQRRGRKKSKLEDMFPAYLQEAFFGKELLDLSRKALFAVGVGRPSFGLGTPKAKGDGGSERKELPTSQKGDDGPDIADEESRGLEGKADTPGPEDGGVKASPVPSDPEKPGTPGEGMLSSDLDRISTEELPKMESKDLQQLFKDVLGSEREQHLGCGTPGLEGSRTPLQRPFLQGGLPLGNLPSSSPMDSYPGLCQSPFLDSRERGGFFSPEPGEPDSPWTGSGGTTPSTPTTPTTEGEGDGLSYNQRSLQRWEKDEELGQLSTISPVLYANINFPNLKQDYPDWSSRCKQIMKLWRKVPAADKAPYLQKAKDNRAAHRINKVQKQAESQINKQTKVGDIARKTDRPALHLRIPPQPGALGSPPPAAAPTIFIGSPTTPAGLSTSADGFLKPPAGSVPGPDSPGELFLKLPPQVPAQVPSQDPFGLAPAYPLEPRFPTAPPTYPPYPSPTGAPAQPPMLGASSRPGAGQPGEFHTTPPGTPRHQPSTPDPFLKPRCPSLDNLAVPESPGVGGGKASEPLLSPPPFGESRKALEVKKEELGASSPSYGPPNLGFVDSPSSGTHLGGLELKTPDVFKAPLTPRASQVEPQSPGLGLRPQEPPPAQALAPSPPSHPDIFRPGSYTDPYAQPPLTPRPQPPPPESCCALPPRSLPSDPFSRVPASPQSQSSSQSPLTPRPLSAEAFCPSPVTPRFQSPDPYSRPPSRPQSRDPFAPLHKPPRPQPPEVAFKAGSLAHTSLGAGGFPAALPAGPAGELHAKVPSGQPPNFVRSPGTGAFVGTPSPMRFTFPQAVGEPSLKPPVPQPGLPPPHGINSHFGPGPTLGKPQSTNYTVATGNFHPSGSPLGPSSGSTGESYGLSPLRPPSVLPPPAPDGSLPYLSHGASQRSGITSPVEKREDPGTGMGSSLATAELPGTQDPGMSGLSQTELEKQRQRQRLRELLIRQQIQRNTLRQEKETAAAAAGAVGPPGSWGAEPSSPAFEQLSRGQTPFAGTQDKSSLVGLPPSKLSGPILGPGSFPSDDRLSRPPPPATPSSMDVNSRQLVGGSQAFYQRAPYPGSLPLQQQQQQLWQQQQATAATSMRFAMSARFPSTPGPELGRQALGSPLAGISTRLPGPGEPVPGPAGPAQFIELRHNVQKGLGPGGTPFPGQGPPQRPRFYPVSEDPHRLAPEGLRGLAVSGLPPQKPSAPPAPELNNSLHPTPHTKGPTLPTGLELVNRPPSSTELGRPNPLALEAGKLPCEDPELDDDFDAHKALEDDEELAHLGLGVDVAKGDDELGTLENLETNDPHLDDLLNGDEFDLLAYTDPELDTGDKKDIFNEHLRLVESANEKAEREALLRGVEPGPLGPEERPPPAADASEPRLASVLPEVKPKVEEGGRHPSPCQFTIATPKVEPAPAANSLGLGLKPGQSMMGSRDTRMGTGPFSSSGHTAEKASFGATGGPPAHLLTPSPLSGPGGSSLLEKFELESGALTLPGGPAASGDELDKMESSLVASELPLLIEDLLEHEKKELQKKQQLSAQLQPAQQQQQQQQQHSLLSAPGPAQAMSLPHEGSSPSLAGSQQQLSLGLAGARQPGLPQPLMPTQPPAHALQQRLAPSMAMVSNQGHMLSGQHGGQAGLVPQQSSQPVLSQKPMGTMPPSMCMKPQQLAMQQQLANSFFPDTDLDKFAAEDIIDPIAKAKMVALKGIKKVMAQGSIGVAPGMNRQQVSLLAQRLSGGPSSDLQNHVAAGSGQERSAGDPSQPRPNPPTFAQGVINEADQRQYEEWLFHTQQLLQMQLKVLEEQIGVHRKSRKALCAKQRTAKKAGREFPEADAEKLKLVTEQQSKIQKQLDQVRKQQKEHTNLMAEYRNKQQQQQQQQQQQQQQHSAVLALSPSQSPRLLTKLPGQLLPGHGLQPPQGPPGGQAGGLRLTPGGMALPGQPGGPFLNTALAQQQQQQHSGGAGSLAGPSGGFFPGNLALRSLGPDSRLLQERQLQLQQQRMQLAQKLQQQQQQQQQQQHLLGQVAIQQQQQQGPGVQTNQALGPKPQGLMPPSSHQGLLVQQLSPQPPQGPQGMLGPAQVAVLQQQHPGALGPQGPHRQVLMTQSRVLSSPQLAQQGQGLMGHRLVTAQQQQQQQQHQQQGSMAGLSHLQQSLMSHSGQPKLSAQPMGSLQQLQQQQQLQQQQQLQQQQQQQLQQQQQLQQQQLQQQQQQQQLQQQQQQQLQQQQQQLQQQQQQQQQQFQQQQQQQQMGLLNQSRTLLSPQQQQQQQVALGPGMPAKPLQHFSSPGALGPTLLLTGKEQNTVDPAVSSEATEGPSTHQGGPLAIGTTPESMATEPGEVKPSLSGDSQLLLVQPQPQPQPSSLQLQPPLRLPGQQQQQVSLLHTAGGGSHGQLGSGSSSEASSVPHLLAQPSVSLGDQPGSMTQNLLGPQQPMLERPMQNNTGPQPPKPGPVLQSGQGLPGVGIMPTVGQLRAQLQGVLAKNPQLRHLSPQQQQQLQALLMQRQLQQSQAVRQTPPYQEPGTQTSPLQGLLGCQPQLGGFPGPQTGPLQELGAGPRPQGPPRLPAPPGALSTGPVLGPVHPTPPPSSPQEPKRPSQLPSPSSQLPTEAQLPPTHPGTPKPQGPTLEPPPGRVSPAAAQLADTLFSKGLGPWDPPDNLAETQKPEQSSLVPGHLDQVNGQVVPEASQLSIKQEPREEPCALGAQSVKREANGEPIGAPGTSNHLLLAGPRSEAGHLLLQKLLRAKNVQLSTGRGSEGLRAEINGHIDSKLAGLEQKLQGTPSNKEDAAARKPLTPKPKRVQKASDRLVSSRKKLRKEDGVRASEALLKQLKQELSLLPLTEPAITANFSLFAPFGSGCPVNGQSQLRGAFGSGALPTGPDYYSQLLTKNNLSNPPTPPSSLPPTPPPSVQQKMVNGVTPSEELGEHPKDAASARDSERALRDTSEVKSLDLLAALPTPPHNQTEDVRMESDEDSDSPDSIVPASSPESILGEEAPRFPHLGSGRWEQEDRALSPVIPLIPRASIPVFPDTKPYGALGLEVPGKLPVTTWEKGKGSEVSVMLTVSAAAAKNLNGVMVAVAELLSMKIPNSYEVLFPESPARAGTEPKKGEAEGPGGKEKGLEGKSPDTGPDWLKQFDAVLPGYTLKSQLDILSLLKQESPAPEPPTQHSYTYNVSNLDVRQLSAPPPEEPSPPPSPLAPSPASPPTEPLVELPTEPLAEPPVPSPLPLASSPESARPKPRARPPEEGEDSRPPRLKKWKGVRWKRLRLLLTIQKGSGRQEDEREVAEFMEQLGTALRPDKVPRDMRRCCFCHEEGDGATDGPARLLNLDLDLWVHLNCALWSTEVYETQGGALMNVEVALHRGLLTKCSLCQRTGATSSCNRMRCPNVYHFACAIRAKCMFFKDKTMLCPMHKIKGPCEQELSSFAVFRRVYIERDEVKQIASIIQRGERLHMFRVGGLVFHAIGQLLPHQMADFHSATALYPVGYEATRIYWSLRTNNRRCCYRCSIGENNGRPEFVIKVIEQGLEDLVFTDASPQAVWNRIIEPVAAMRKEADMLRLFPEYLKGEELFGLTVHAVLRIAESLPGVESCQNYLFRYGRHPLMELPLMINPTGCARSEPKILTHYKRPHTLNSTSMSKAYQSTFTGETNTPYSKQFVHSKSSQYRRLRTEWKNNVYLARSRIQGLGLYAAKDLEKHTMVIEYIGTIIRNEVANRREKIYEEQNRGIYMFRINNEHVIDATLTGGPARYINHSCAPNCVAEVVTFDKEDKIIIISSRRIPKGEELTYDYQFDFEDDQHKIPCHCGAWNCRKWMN
UniProt Q9NVR0: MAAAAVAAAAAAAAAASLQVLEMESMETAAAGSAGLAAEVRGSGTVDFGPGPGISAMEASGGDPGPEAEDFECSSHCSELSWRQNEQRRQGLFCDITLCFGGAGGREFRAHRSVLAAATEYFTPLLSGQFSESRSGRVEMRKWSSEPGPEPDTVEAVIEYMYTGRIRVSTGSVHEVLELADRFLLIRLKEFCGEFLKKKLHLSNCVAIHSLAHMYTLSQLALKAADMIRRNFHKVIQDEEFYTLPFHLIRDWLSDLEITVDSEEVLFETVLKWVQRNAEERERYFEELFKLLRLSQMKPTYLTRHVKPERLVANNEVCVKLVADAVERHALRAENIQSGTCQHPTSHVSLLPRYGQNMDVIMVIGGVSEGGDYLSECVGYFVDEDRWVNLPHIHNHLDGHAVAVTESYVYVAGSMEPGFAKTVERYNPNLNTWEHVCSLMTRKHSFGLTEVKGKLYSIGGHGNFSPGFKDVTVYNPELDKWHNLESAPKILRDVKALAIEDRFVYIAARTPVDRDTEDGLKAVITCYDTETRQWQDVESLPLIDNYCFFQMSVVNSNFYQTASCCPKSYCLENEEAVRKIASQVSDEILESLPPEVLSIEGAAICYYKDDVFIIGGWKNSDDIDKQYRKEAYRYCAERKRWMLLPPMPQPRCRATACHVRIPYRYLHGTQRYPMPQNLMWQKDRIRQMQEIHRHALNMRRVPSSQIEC
UniProt Q8N5M9: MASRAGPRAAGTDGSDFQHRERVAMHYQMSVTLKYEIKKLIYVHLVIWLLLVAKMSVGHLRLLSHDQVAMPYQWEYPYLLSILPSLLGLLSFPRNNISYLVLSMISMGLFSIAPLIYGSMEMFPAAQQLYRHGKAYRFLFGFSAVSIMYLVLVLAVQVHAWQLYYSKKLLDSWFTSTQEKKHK

The targets below were run with C1CCN(C1)C(=O)NC2=CC=CC(=C2)NC3=NC=C(C(=N3)NCCC4=CN=CN4)Br (assay: log2 fold change, soluble protein after heating vs DMSO (PISA); higher = thermal stabilisation; K562 cells, 10 uM, 30 min; active = over 0.2 and 3.5 SD of the protein, either way, in both replicates (recomputed)).
Outline: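 K562 cells (2×10^6 cells/mL) were treated with 10 μM compound for 30 min, and aliquots were heated for 3 min over 48°C-58°C. Pooled aliquots were extracted in PBS with 0.5% NP-40 at 4°C, and the supernatant after 21,000xg for 90 min was measured by TMTpro 16plex LC-MS/MS with channel sums equalised. Reported thermal stability, relative to control samples and from duplicates, is a log2 fold change.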

log2 fold change, inactive:
KIAA1143 (UniProt Q96AT1) 0.038, KLC2 (UniProt Q9H0B6) -0.063, KDM8 isoform 3 (UniProt Q8N371) -0.049, KPNA2 (UniProt P52292) -0.076, KMT2D isoform 3 (UniProt O14686) -0.179, KATNB1 (UniProt Q9BVA0) 0.007, KIF13A (UniProt Q9H1H9) -0.043, KHDRBS1 (UniProt Q07666) -0.029, KHSRP (UniProt Q92945) 0.006, KPNB1 (UniProt Q14974) -0.034, KNTC1 (UniProt P50748) 0.001, KIAA0100 (UniProt Q14667) -0.013, KLHL11 (UniProt Q9NVR0) 0.003, JAGN1 (UniProt Q8N5M9) 0.003, KLC1 isoform 6 (UniProt Q07866) 0.014, IVNS1ABP (UniProt Q9Y6Y0) -0.03, KNSTRN (UniProt Q9Y448) 0.025, KIF1B isoform 4 (UniProt O60333) -0.02, KARS1 (UniProt Q15046) 0.03, KDM1A isoform 2 (UniProt O60341) -0.03, KCTD5 (UniProt Q9NXV2) 0.015, KPNA1 (UniProt P52294) -0.032
